Test results: ChEMBL document CHEMBL1221243, “Design, synthesis, and biological evaluation of a novel series of quercetin diacylglucosides as potent anti-MRSA and anti-VRE agents” (Bioorg Med Chem Lett, 2010)

Test system: Pseudomonas aeruginosa
Experiment: Antimicrobial activity against Pseudomonas aeruginosa PAO1 after 24 hrs by microdilution assay
Type: functional
Conditions: PAO1, 24 h

Q: With `CN[C@H](CC(C)C)C(=O)N[C@H]1C(=O)N[C@@H](CC(N)=O)C(=O)N[C@H]2C(=O)N[C@H]3C(=O)N[C@H](C(=O)N[C@H](C(=O)O)c4cc(O)cc(O)c4-c4cc3ccc4O)[C@H](O)c3ccc(c(Cl)c3)Oc3cc2cc(c3O[C@@H]2O[C@H](CO)[C@@H](O)[C@H](O)[C@H]2O[C@H]2C[C@](C)(N)[C@H](O)[C@H](C)O2)Oc2ccc(cc2Cl)[C@H]1O` [VANCOMYCIN] as the compound, how does the MIC read?
A: The MIC was > 128 µg/mL.
